{"source": "ChEMBL document CHEMBL5036362", "about": "“Salidroside Promotes Sensitization to Doxorubicin in Human Cancer Cells by Affecting the PI3K/Akt/HIF Signal Pathway and Inhibiting the Expression of Tumor-Resistance-Related Proteins” (J Nat Prod, 2022)", "test_system": "HeLa", "assay": "Antiproliferative activity against human HeLa cells assessed as inhibition of cell proliferation measured after 48 hrs by CCK-8 assay", "format": "functional, cell-based"}
{"smiles": "COc1cccc2c1C(=O)c1c(O)c3c(c(O)c1C2=O)C[C@@](O)(C(=O)CO)C[C@@H]3O[C@H]1C[C@H](N)[C@H](O)[C@H](C)O1", "note": "[DOXORUBICIN]", "values": [{"measurement": "IC50", "value": 0.59, "unit": "µM"}]}
